The data set concerns the target SRY HMG box WT (Homo sapiens) (UniProt Q05066). The data set can be described thus: CD thermal unfolding of equimolar complex. The note with it: 25 uM (Methods), complex stable at 37 C; PGE: 10 nM DNA, 20 nM protein, 0.5x TBE, 4 C; recombinant protein.

Protein sequences, listed by entry. Tags and fused reporters are not part of them. Residues count along the entry.
UniProt Q05066, 56-141: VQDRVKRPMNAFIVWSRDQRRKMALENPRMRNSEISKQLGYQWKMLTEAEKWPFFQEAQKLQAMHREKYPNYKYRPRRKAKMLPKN

Construct, isoform or probe ends are uncertain for at least one entry. At least one verdict rests on a figure or table, not on a statement of the authors.

For “TCGGTGATTGTTCAG (double strand) [15-bp consensus SRY site, unlabeled]”, the binding result is “binds”.

(Values after article PMC9360328.)
